PMC4651308

Protein sequences, listed by entry. Tags and fused reporters are not part of them. Lines headed by an entry give the natural chain unless they say otherwise; changes in a name come on top.
UniProt O75030: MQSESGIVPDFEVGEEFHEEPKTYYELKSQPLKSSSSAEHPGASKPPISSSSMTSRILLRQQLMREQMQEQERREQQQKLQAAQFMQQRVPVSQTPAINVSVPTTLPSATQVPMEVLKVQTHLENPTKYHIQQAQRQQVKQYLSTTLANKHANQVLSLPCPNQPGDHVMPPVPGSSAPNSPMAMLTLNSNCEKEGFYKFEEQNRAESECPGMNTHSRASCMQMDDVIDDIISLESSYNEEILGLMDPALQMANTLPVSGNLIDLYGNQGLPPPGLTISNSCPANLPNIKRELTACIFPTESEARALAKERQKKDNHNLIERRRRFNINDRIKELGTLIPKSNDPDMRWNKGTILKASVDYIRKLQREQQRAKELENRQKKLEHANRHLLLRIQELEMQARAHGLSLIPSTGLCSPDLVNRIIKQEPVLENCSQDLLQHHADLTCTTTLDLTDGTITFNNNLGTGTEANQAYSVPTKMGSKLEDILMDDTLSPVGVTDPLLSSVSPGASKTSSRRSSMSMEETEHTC

Molecular target: Flag-tagged full-length MITF (microphthalmia-associated transcription factor) (human) (UniProt O75030)
Experiment: co-IP; HeLa cells co-transfected with pcDNA3.1-LEF-1-HA and pCMV-3×Flag-MITF; lysis in RIPA buffer (150 mM NaCl, 50 mM Tris pH 8.0, 1% Nonidet P-40, 2 mM EDTA, 10% glycerol); IP with anti-Flag M2 antibody and protein G agarose overnight at 4°C, normal mouse IgG as negative control; blot with …

binding: binds
Substance: HA-tagged full-length LEF-1 (lymphoid enhancer-binding factor 1) (from UniProt Q9UJU2-1 1-399)

No constants are given. Whether binding was seen depends on the method and setting. Binding seen in cells or lysates may run through a third protein. Binding calls can cover weak binding; strength is not graded here.
